Data reported in patent US11873354B2, “Photobase generator, compound, photoreactive composition, and reaction product” (Tokyo University of Science Foundation, priority 2019, dated 2024).

Assay: Behavior in polymer solid under light irradiation, FT-IR (Test Examples 9, 10)
Type: physicochemical
Settings: in polytetramethylene glycol film, 313 nm or 365 nm, as exposure doses increased

**Q.** Which results are given for `CC1=NCCN1C(=O)/C=C/c1cc(C(C)(C)C)cc(C(C)(C)C)c1O` [Compound (1)-3]?
**A.** peak intensity derived from the amide group: decreased; peak intensity derived from the lactone structure: increased
